B1: CLTA (protein, UniProt P09496 1-248)
chain: MAELDPFGAPAGAPGGPALGNGVAGAGEEDPAAAFLAQQESEIAGIENDEAFAILDGGAPGPQPHGEPPGGPDAVDGVMNGEYYQESNGPTDSYAAISQVDRLQSEPESIRKWREEQMERLEALDANSRKQEAEWKEKAIKELEEWYARQDEQLQKTKANNRVADEAFYKQPFADVIGYVTNINHPCYSLEQAAEEAFVNDIDESSPGTEWERVARLCDFNPKSSKQAKDVSRMRSVLISLKQAPLVH
B2: LRCH3 (protein, UniProt Q96II8 1-777)
chain: MAAAGLVAVAAAAEYSGTVASGGNLPGVHCGPSSGAGPGFGPGSWSRSLDRALEEAAVTGVLSLSGRKLREFPRGAANHDLTDTTRADLSRNRLSEIPIEACHFVSLENLNLYQNCIRYIPEAILNLQALTFLNISRNQLSTLPVHLCNLPLKVLIASNNKLVSLPEEIGHLRHLMELDVSCNEIQTIPSQIGNLEALRDLNVRRNHLVHLPEELAELPLIRLDFSCNKITTIPVCYRNLRHLQTITLDNNPLQSPPAQICIKGKVHIFKYLNIQACKIAPDLPDYDRRPLGFGSCHEELYSSRPYGALDSGFNSVDSGDKRWSGNEPTDEFSDLPLRVAEITKEQRLRRESQYQENRGSLVVTNGGVEHDLDQIDYIDSCTAEEEEAEVRQPKGPDPDSLSSQFMAYIEQRRISHEGSPVKPVAIREFQKTEDMRRYLHQNRVPAEPSSLLSLSASHNQLSHTDLELHQRREQLVERTRREAQLAALQYEEEKIRTKQIQRDAVLDFVKQKASQSPQKQHPLLDGVDGECPFPSRRSQHTDDSALCMSLSGLNQVGCAATLPHSSAFTPLKSDDRPNALLSSPATETVHHSPAYSFPAAIQRNQPQRPESFLFRAGVRAETNKGHASPLPPSAAPTTDSTDSITGQNSRQREEELELIDQLRKHIEYRLKVSLPCDLGAALTDGVVLCHLANHVRPRSVPSIHVPSPAVPKLTMAKCRRNVENFLEACRKIGVPQEQLCLPLHILEEKGLSQVAVTVQALLELAPPKQQQHQLSAV
B3: HIP1 (protein, UniProt O00291 1-1037)
chain: MDRMASSMKQVPNPLPKVLSRRGVGAGLEAAERESFERTQTVSINKAINTQEVAVKEKHARTCILGTHHEKGAQTFWSVVNRLPLSSNAVLCWKFCHVFHKLLRDGHPNVLKDSLRYRNELSDMSRMWGHLSEGYGQLCSIYLKLLRTKMEYHTKNPRFPGNLQMSDRQLDEAGESDVNNFFQLTVEMFDYLECELNLFQTVFNSLDMSRSVSVTAAGQCRLAPLIQVILDCSHLYDYTVKLLFKLHSCLPADTLQGHRDRFMEQFTKLKDLFYRSSNLQYFKRLIQIPQLPENPPNFLRASALSEHISPVVVIPAEASSPDSEPVLEKDDLMDMDASQQNLFDNKFDDIFGSSFSSDPFNFNSQNGVNKDEKDHLIERLYREISGLKAQLENMKTESQRVVLQLKGHVSELEADLAEQQHLRQQAADDCEFLRAELDELRRQREDTEKAQRSLSEIERKAQANEQRYSKLKEKYSELVQNHADLLRKNAEVTKQVSMARQAQVDLEREKKELEDSLERISDQGQRKTQEQLEVLESLKQELATSQRELQVLQGSLETSAQSEANWAAEFAELEKERDSLVSGAAHREEELSALRKELQDTQLKLASTEESMCQLAKDQRKMLLVGSRKAAEQVIQDALNQLEEPPLISCAGSADHLLSTVTSISSCIEQLEKSWSQYLACPEDISGLLHSITLLAHLTSDAIAHGATTCLRAPPEPADSLTEACKQYGRETLAYLASLEEEGSLENADSTAMRNCLSKIKAIGEELLPRGLDIKQEELGDLVDKEMAATSAAIETATARIEEMLSKSRAGDTGVKLEVNERILGCCTSLMQAIQVLIVASKDLQREIVESGRGTASPKEFYAKNSRWTEGLISASKAVGWGATVMVDAADLVVQGRGKFEELMVCSHEIAASTAQLVAASKVKADKDSPNLAQLQQASRGVNQATAGVVASTISGKSQIEETDNMDFSSMTLTQIKRQEMDSQVRVLELENELQKERQKLGELRKKHYELAGVAEGWEEGTEASPPTLQEVVTEKE
B4: ankycorbin (protein, UniProt Q9P0K7 1-980)
chain: MKSLKAKFRKSDTNEWNKNDDRLLQAVENGDAEKVASLLGKKGASATKHDSEGKTAFHLAAAKGHVECLRVMITHGVDVTAQDTTGHSALHLAAKNSHHECIRKLLQSKCPAESVDSSGKTALHYAAAQGCLQAVQILCEHKSPINLKDLDGNIPLLLAVQNGHSEICHFLLDHGADVNSRNKSGRTALMLACEIGSSNAVEALIKKGADLNLVDSLGYNALHYSKLSENAGIQSLLLSKISQDADLKTPTKPKQHDQVSKISSERSGTPKKRKAPPPPISPTQLSDVSSPRSITSTPLSGKESVFFAEPPFKAEISSIRENKDRLSDSTTGADSLLDISSEADQQDLLSLLQAKVASLTLHNKELQDKLQAKSPKEAEADLSFDSYHSTQTDLGPSLGKPGETSPPDSKSSPSVLIHSLGKSTTDNDVRIQQLQEILQDLQKRLESSEAERKQLQVELQSRRAELVCLNNTEISENSSDLSQKLKETQSKYEEAMKEVLSVQKQMKLGLVSPESMDNYSHFHELRVTEEEINVLKQDLQNALEESERNKEKVRELEEKLVEREKGTVIKPPVEEYEEMKSSYCSVIENMNKEKAFLFEKYQEAQEEIMKLKDTLKSQMTQEASDEAEDMKEAMNRMIDELNKQVSELSQLYKEAQAELEDYRKRKSLEDVTAEYIHKAEHEKLMQLTNVSRAKAEDALSEMKSQYSKVLNELTQLKQLVDAQKENSVSITEHLQVITTLRTAAKEMEEKISNLKEHLASKEVEVAKLEKQLLEEKAAMTDAMVPRSSYEKLQSSLESEVSVLASKLKESVKEKEKVHSEVVQIRSEVSQVKREKENIQTLLKSKEQEVNELLQKFQQAQEELAEMKRYAESSSKLEEDKDKKINEMSKEVTKLKEALNSLSQLSYSTSSSKRQSQQLEALQQQVKQLQNQLAECKKQHQEVISVYRMHLLYAVQGQMDEDVQKVLKQILTMCKNQSQKK
B5: STON2 (protein, UniProt Q8WXE9 1-905)
chain: MTTLDHVIATHQSEWVSFNEEPPFPAHSQGGTEEHLPGLSSSPDQSESSSGENHVVDGGSQDHSHSEQDDSSEKMGLISEAASPPGSPEQPPPDLASAISNWVQFEDDTPWASTSPPHQETAETALPLTMPCWTCPSFDSLGRCPLTSESSWTTHSEDTSSPSFGCSYTDLQLINAEEQTSGQASGADSTDNSSSLQEDEEVEMEAISWQASSPAMNGHPAPPVTSARFPSWVTFDDNEVSCPLPPVTSPLKPNTPPSASVIPDVPYNSMGSFKKRDRPKSTLMNFSKVQKLDISSLNRTPSVTEASPWRATNPFLNETLQDVQPSPINPFSAFFEEQERRSQNSSISSTTGKSQRDSLIVIYQDAISFDDSSKTQSHSDAVEKLKQLQIDDPDHFGSATLPDDDPVAWIELDAHPPGSARSQPRDGWPMMLRIPEKKNIMSSRHWGPIFVKLTDTGYLQLYYEQGLEKPFREFKLEICHEISEPRLQNYDENGRIHSLRIDRVTYKEKKKYQPKPAVAHTAEREQVIKLGTTNYDDFLSFIHAVQDRLMDLPVLSMDLSTVGLNYLEEEITVDVRDEFSGIVSKGDNQILQHHVLTRIHILSFLSGLAECRLGLNDILVKGNEIVLRQDIMPTTTTKWIKLHECRFHGCVDEDVFHNSRVILFNPLDACRFELMRFRTVFAEKTLPFTLRTATSVNGAEVEVQSWLRMSTGFSANRDPLTQVPCENVMIRYPVPSEWVKNFRRESVLGEKSLKAKVNRGASFGSTSVSGSEPVMRVTLGTAKYEHAFNSIVWRINRLPDKNSASGHPHCFFCHLELGSDREVPSRFANHVNVEFSMPTTSASKASVRSISVEDKTDVRKWVNYSAHYSYQVALGSIWLMLPTPFVHPTTLPLLFLLAMLTMFAW
B6: DAB2 (protein, UniProt P98082 1-770)
chain: MSNEVETSATNGQPDQQAAPKAPSKKEKKKGPEKTDEYLLARFKGDGVKYKAKLIGIDDVPDARGDKMSQDSMMKLKGMAAAGRSQGQHKQRIWVNISLSGIKIIDEKTGVIEHEHPVNKISFIARDVTDNRAFGYVCGGEGQHQFFAIKTGQQAEPLVVDLKDLFQVIYNVKKKEEEKKKIEEASKAVENGSEALMILDDQTNKLKSGVDQMDLFGDMSTPPDLNSPTESKDILLVDLNSEIDTNQNSLRENPFLTNGITSCSLPRPTPQASFLPENAFSANLNFFPTPNPDPFRDDPFTQPDQSTPSSFDSLKSPDQKKENSSSSSTPLSNGPLNGDVDYFGQQFDQISNRTGKQEAQAGPWPFSSSQTQPAVRTQNGVSEREQNGFSVKSSPNPFVGSPPKGLSIQNGVKQDLESSVQSSPHDSIAIIPPPQSTKPGRGRRTAKSSANDLLASDIFAPPVSEPSGQASPTGQPTALQPNPLDLFKTSAPAPVGPLVGLGGVTVTLPQAGPWNTASLVFNQSPSMAPGAMMGGQPSGFSQPVIFGTSPAVSGWNQPSPFAASTPPPVPVVWGPSASVAPNAWSTTSPLGNPFQSNIFPAPAVSTQPPSMHSSLLVTPPQPPPRAGPPKDISSDAFTALDPLGDKEIKDVKEMFKDFQLRQPPAVPARKGEQTSSGTLSAFASYFNSKVGIPQENADHDDFDANQLLNKINEPPKPAPRQVSLPVTKSTDNAFENPFFKDSFGSSQASVASSQPVSSEMYRDPFGNPFA

Among the data in paper PMC9346516 are binding values, retold here.

These are yes or no findings as the source states them, for the method shown. In cells and extracts the contact can be indirect. Here binding means that the protein was enriched with, or labelled near, the bait; the list need not be complete.

This test addresses ARAP1 (human (endogenous in fetal RPE cells)). As to the kind of experiment: affinity purification with mass spectrometry; goat anti-ARAP1 (Abcam ab5912) cross-linked with BS3 to Protein G magnetic beads; NP-40 lysate of cultured human fetal RPE cells, pre-cleared on beads; normal goat IgG immunoprecipitation in parallel as control; LC-MS/MS of five independent samples.
Turning to B1, the binding result was “binds”.

With B2, the binding entry is on record as “binds”.

For the molecule B3, the binding result is on record as “binds”.

B4: the binding result was “binds”.

Take B5: the binding result is “binds”.

For B6, the binding entry is given as “binds”.
